In patent publication US20030153951A1, “Methods and devices for treating arrhythmias using defibrillation shocks” (priority 2002, published 2003):

System: ventricular fibrillation
Test: Defibrillation threshold (3-reversal up/down protocol) after electrically induced ventricular fibrillation in anesthetized pigs
Format: in vivo
Conditions: control, drug, washout, vehicle groups
Excerpt: Six healthy pigs (30-35 kg) of either sex were anesthetized, monitored, and maintained under physiologic conditions. See, Chattipakorn et al. (2000). Two catheter-mounted platinum coated titanium coil electrodes were used as defibrillating electrodes. A 34-mm catheter was inserted into the right ventricular (RV) apex and served as the cathode for the first phase of the biphasic shock. […] The position of the catheters was verified with fluoroscopy. The blood pressure and heart rate were monitored continuously throughout the entire study.
Ventricular fibrillation was induced by 60-Hz alternating current delivered via an electrode at the tip of the RV catheter. […] Delivered voltage and current were recorded on a waveform analyzer and total delivered energy was calculated. […]
The defibrillation threshold was determined 4 times during 4 different conditions in this study. The defibrillation threshold in each group was determined using a 3-reversal up/down protocol. See Chattipakorn et al. The first defibrillation threshold was determined at the beginning of the study. […] The second defibrillation threshold (drug-DFT) was determined 15 minutes after the application of Flunarizine. After the drug-DFT was obtained, the administration of Flunarizine was terminated while the blood pressure and heart rate were monitored. […]

Fc1ccc(C(c2ccc(F)cc2)N2CCN(C/C=C/c3ccccc3)CC2)cc1 [Flunarizine]
change in current among the four defibrillation threshold groups: no significant changes | change in impedance among the four defibrillation threshold groups: no significant changes
